Experimental data reported in PubChem BioAssay AID1671190 (National Center for Advancing Translational Sciences (NCATS), 2021).
Values joined by “and” are separate entries in the source; they are usually repeats but may differ in a detail not shown here. Equal entries are not always repeated. Out of some 580,000 compounds screened, about 6,100 (1.1%) were called active. Inconclusive results, whose numbers are uncertain, are shown with a selection of clear calls. Calls follow the shape of the dose curve; as a rule, active = well fitted inhibition curve with a large enough effect; inconclusive = small, poorly fitted or top-dose-only effect, or another doubt; inactive = no such curve, though single readings can be large or run the other way. Potencies beside an inconclusive call are fits to weak or partial responses and may not hold up.

Protein sequences, listed by entry. Tags and fused reporters are not part of them.
UniProt P18054, whole entry, looked up: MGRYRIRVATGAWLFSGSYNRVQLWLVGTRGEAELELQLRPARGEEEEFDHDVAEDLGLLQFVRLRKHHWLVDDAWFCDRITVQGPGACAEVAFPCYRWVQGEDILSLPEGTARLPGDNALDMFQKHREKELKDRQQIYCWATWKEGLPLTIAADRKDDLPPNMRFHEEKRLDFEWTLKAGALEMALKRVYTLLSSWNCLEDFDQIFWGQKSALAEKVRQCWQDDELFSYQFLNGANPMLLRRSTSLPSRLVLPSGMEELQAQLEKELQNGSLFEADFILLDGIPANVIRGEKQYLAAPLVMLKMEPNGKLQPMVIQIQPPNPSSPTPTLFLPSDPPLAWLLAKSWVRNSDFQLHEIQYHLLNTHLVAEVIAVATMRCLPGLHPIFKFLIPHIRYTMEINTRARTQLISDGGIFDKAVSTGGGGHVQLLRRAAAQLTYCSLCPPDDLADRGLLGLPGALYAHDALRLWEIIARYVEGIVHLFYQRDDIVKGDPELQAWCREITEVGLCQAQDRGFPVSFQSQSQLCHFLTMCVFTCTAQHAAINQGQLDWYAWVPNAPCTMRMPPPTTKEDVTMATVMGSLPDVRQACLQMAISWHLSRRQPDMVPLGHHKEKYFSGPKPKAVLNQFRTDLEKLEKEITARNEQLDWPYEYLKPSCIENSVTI

These compounds were tested against Polyunsaturated fatty acid lipoxygenase ALOX12 (Homo sapiens) (UniProt P18054) (assay: Primary qHTS assay for inhibitors of human arachidonate 12S-lipoxygenase (ALOX12): Round 2). Conditions: purified 12hLO, xylenol orange hydroperoxide absorbance; activity change, negative = inhibition: at 108 µM (top of the series) unless noted.
Summary of the method: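 Purified human 12hLO at 150 nM in 25 mM Hepes, 0.01% Triton X-100, pH 7.0, preincubated 15 min at room temperature with compound. Reaction started with 40 uM arachidonic acid, 30 min at room temperature. Hydroperoxide measured by Fe-xylenol orange, 573/405 nm absorbance ratio.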
% is scaled to controls: 0 for no effect and ±100 for the full control effect; potency is read from the fitted curve at half-maximal effect.

| Compound | Potency | activity change, negative = inhibition |
| --- | --- | --- |
| CCCCCCCCCCCCC(=O)N1CCCC[C@H]1CNC(=O)[C@@H](N)CCCCN | inconclusive: 28.2 µM [inhibitor, single point] |  |
| CCOC(=O)Cn1cnc2c(cnn2-c2ccc(OC)cc2)c1=O | inconclusive: 15.8 µM [inhibitor, partial curve, poor fit] |  |
| COc1ccc(C(=O)Nc2ccc(Cl)cc2C(=O)NCc2ccco2)cc1 |  | inactive: -3.12% |
| COc1ccc(Cn2c(=O)c3[nH]cnc3n(-c3ccccc3C)c2=O)cc1 | inconclusive: 89.1 µM [inhibitor, partial curve, poor fit] |  |
| COc1ccc(/C(O)=C2/C(=O)C(=O)N(CCCC(=O)O)C2c2ccc(OC)cc2)cc1 (centres undefined) | inconclusive: 11.2 µM [inhibitor, partial curve, poor fit] |  |
| COc1ccc(CNCC(O)COc2ccc(C(C)(C)c3ccccc3)cc2)cc1 (centres undefined) | inconclusive: 50.1 µM [inhibitor, partial curve, poor fit] |  |
| CCOC(=O)Cn1c(C(F)(F)F)nc2nc(Cl)c(Cl)nc21 |  | inactive: -8.17% |
| CCOc1ccc(Nc2cc(C)c3ccccc3n2)cc1 | inconclusive: 11.2 µM [inhibitor, full curve] and inconclusive: 89.1 µM [inhibitor, single point] |  |
| COc1ccc2nc3n(c2c1)[C@@H](CNCc1ccc2c(c1)OCO2)COC3 | inconclusive: 25.1 µM [inhibitor, full curve] |  |
| Cc1ccc(OCCn2cnc3c(N)ncnc32)cc1 | inconclusive: 28.2 µM [inhibitor, partial curve, poor fit] |  |
| Cc1ccc(C(=O)OCc2c(C)noc2C)cc1NC(=O)c1ccco1 | inconclusive: 44.7 µM [inhibitor, partial curve, poor fit] |  |
| COC(=O)c1ccc2nc(Nc3nc4c(F)cc(F)cc4s3)sc2c1 |  | inactive: 6.81% |
| CSCCC(NC(=O)COc1ccccc1)C(=O)OCc1ccc(Cl)cc1 (centres undefined) | inconclusive: 100 µM [inhibitor, single point] |  |
| O=C1C2Sc3[nH]c(=O)sc3C(c3ccccc3)C2C(=O)N1c1ccccc1 (centres undefined) | inconclusive: 70.8 µM [inhibitor, single point] |  |
| COc1cc(O)c2c(=O)c3c(OC)c(O)ccc3oc2c1 | inconclusive: 100 µM [inhibitor, single point] |  |
| COCCN1CCC(CN(Cc2ccncc2)C(=O)[C@@H]2C[C@@H]3C=C[C@H]2C3)CC1 |  | inactive: 42.6% |
| COc1cc(C(=O)NC(=S)Nc2cccc(-c3cc4ccccc4oc3=O)c2)cc(OC)c1OC | inconclusive: 2.82 µM [inhibitor, full curve, poor fit] |  |
| CCOc1ccc2nc(-c3ccc(OC)c(OC)c3)cc(C(=O)O)c2c1 | inconclusive: 100 µM [inhibitor, partial curve, poor fit] |  |
| CCOCC(=O)Nc1cccc(-c2nc3cccnc3s2)c1C |  | inactive: 17.9% [at 57.4 µM] |
| COc1ccc(OC)c(Nc2ncnc3c2nc2n3CCCC2)c1 | inconclusive: 79.4 µM [inhibitor, partial curve, poor fit] |  |
| CC1=C(C(=O)N2CCOCC2)C(c2c(F)cccc2F)NC(=O)N1Cc1ccccc1 (centres undefined) | inconclusive: 15.8 µM [inhibitor, full curve, poor fit] |  |
| COc1ccc(CCNC(=O)c2sc(NCC(C)C)nc2C)cc1 |  | inactive: 2.18% |
| CSCCC1NC2(C(=O)Nc3c(C)cc(Cl)cc32)[C@@H]2C(=O)N(C3CCCC3)C(=O)[C@H]12 (some centres undefined) | inconclusive: 141 µM [inhibitor, single point] |  |

| Compound | Potency | activity change, negative = inhibition |
| --- | --- | --- |
| COc1ccc(CN2CCN(C(=O)c3cccs3)CC2)c(OC)c1OC | inconclusive: 0.316 µM [inhibitor, full curve, poor fit] |  |
| Cc1ccc(NC(=S)NCc2ccccc2)cc1S(=O)(=O)N1CCCCC1 | inconclusive: 39.8 µM [inhibitor, partial curve, poor fit] |  |
| O=C(Nc1ccc(Cl)c(C(F)(F)F)c1)c1ccc(F)cc1 | inconclusive: 79.4 µM [inhibitor, partial curve, poor fit] |  |
| COc1ccc(/C=C2\SC(=O)N(CCNC(=O)C3=COCCO3)C2=O)cc1 | inconclusive: 89.1 µM [inhibitor, single point] |  |
| O=C(CN1C(=O)CCC1=O)NNc1ccc2ccccc2c1 | inconclusive: 50.1 µM [inhibitor, partial curve, poor fit] |  |
| Cc1cc(C)c(OCC(=O)NC2=NCCS2)c(C)c1 | inconclusive: 28.2 µM [inhibitor, partial curve, poor fit] |  |
| Cn1c(COc2ccccc2)nnc1SCCN1CCOCC1 | inconclusive: 0.398 µM [inhibitor, full curve, poor fit] |  |
| O=C1NC(=S)N/C1=C/c1cc([N+](=O)[O-])ccc1O |  | inactive: 0% |
| O=C(CN(C1CCCCC1)S(=O)(=O)c1ccccc1)N1CCOCC1 |  | inactive: 34.6% |
| COc1ccc(N/C=C/C(=O)c2ccccc2)cc1 |  | inactive: 11% |
| COc1ccccc1-c1nc(Nc2ccncc2)c2ccccc2n1 | active: 28.2 µM |  |
| COc1ccc(-n2nnnc2SCC(=O)Nc2cccc(O)c2)cc1 | inconclusive: 112 µM [inhibitor, single point] |  |
| COC(=O)c1cc(-c2ccco2)nc2onc(-c3ccccc3)c12 | inconclusive: 31.6 µM [inhibitor, partial curve, poor fit] |  |
| Cc1ccc(Cn2nc(C)c(NC(=O)CCCn3nc(C)c([N+](=O)[O-])c3C)c2C)cc1 |  | inactive: -4.05% |
| CN(CC1CCOCC1)C(=O)Cc1c(F)cccc1Cl |  | inactive: 9.37% |
| CCNC(=O)c1cc(-c2ccc(Cl)cc2)nc2ccccc12 |  | inactive: 3.43% |
| CCOC(=O)N1CCC(NC(=O)c2ccc3c(c2)N(Cc2ccc(F)cc2)CCS3)CC1 |  | inactive: -14.3% |
| Cc1nnc(SCCOc2ccccc2)s1 | inconclusive: 63.1 µM [inhibitor, partial curve, poor fit] |  |
| COc1ccc(CCN2CCC(CN3C(=S)NC[C@@H]3Cc3ccccc3)CC2)cc1OC | inconclusive: 112 µM [inhibitor, single point] |  |
| COc1ccc(NC(=O)CN2CCN(C(=O)c3ccco3)CC2)c(OC)c1 |  | inactive: 0% |
| CC1CN(S(=O)(=O)c2cccc(C(=O)OCC(=O)Nc3ccc4c(c3)OCO4)c2)CC(C)O1 (centres undefined) |  | inactive: 0% |
| c1ccc2c(c1)CC(N1CCCCC1)c1ccccc1S2 (centres undefined) | inconclusive: 112 µM [inhibitor, partial curve, poor fit] |  |
| CCCCCCCCNC(=O)/C(C#N)=C/c1ccc(SC)cc1 |  | inactive: 0.899% |

Shown in CSV form: part of the list above.
Compound,Potency,"activity change, negative = inhibition"
O=C1C2Sc3[nH]c(=O)sc3C(c3ccccc3)C2C(=O)N1c1ccccc1 (centres undefined),"inconclusive: 70.8 µM [inhibitor, single point]",
CCOCC(=O)Nc1cccc(-c2nc3cccnc3s2)c1C,,inactive: 17.9% [at 57.4 µM]
COc1ccc(OC)c(Nc2ncnc3c2nc2n3CCCC2)c1,"inconclusive: 79.4 µM [inhibitor, partial curve, poor fit]",
COC(=O)c1cc(-c2ccco2)nc2onc(-c3ccccc3)c12,"inconclusive: 31.6 µM [inhibitor, partial curve, poor fit]",

The results go on.

| Compound | Potency | activity change, negative = inhibition |
| --- | --- | --- |
| O=[N+]([O-])c1ccc(S(=O)(=O)Nc2ccc3c(c2)OCCO3)cc1 | inconclusive: 50.1 µM [inhibitor, partial curve, poor fit] |  |
| Cc1ccccc1-n1c(=O)cc(N2CCCCCC2)[nH]c1=O | inconclusive: 89.1 µM [inhibitor, single point] |  |
| COc1ccc(-c2noc([C@@H]3CCCN3C(=O)c3ccc(OC)c(F)c3)n2)cc1 |  | inactive: 44.4% |
| CCn1cc(CN2CCC(C(=O)Nc3ccc(Oc4ccccc4)nc3)CC2)cn1 | inconclusive: 79.4 µM [inhibitor, partial curve, poor fit] |  |
| Cc1c(C)n(Cc2ccccc2)c2ccc(C(=O)OCCN(C)C)cc12 | inconclusive: 17.8 µM [inhibitor, full curve] |  |
| COc1ccc(C(=O)N2CCCCCNC(=O)[C@H]3C[C@H](C(=O)N4CCc5ccccc5C4)C[C@H]32)cn1 |  | inactive: 38.7% |
| CC(C)c1ncncc1C(=O)O | inconclusive: 22.4 µM [inhibitor, full curve, poor fit] |  |
| CCOC(=O)C1CCN(c2nc3ccccc3n3c(=O)n(CC(=O)Nc4ccccc4C#N)nc23)CC1 |  | inactive: -22.7% |
| Cc1cccc(OCC(=O)N/N=C/C=C/c2ccco2)c1 | inconclusive: 50.1 µM [inhibitor, partial curve, poor fit] |  |
| COc1ccc(/C=N/NC(=O)CC(=O)N/N=C/c2ccc(OC)cc2)cc1 |  | inactive: -6.89% |
| Cc1cc(CC(=O)O)c2oc(-c3ccoc3)cc(=O)c2c1 |  | inactive: 4.48% |
| Cc1csc2nc(-c3cccc(NS(=O)(=O)c4cccs4)c3)cn12 | inconclusive: 141 µM [inhibitor, single point] |  |
| COc1ccc(CCNC(=O)c2cc3c(=O)n4ccccc4nc3n(C3CCCCC3)c2=N)cc1OC |  | inactive: -25% |
| Cc1nn(C(=O)CCC(=O)N2CCCC(c3nc(C4CCOCC4)no3)C2)c2ccccc12 (centres undefined) |  | inactive: 33% |
| Cc1ccc(/C(O)=C2\C(=O)C(=O)N(CCCO)C2c2ccc(Br)cc2)cc1 (centres undefined) | inconclusive: 56.2 µM [inhibitor, partial curve, poor fit] |  |
| COc1ccc(Nc2nc(N3CCCCC3)c3ccccc3n2)cc1 | active: 28.2 µM |  |
| C=CCN1C=C2C(=O)C(C)(OC(=O)c3ccc(OC)cc3)C(=O)C(c3ccco3)=C2C=C1CCCC (centres undefined) |  | inactive: -19.2% |
| CC(C)(C)c1ccc2c(c1)OCCOCCOCCO2 |  | inactive: 2.19% |
| CC1(C)c2[nH]c3ccccc3c2C[C@@H]2C(=O)N(c3ccc(F)cc3F)C(=O)N21 | inconclusive: 158 µM [inhibitor, partial curve, poor fit] |  |
| CC1=C(C(=O)Nc2cc(C(=O)N3CCN(c4ccc(Cl)cc4)CC3)ccc2C)SCCO1 |  | inactive: 3.57% |
| S=C(Nc1ccc2nsnc2c1)N1CCCCC1 | inconclusive: 50.1 µM [inhibitor, partial curve, poor fit] |  |
| Cc1[nH]c2ccccc2c1C(=O)/C(C#N)=C\c1ccccc1 | inconclusive: 39.8 µM [inhibitor, partial curve, poor fit] |  |
| Cc1ccc(C(=O)Nc2cccc(-c3nc4ccccc4s3)c2C)c(C)c1 | inconclusive: 44.7 µM [inhibitor, single point] |  |
